Results: patent publication US20260240962A1, “PHARMACEUTICAL COMPOSITION FOR TREATING AND/OR PREVENTING CANCER” (TORAY INDUSTRIES, INC., priority 2023, published 2026)
At least one compound was matched to its structure with a doubt left.

Test system: CAPRIN-1 protein on the membrane surface of the cancer cells
Assay: Flow cytometry of CAPRIN-1 protein on the membrane surface of HCT-116 treated with low molecular weight compounds
Assay type: cell-based, human
Details: 1 to 3 days, vs DMSO negative control
Description: 2×10^5 cancer cells suspended in Dulbecco's PBS(−) containing 1% fetal bovine serum (hereinafter, 1% FCS-PBS(−)) were reacted with an antibody against CAPRIN-1 at a concentration of 1 to 10 μg/mL, and then allowed to react on ice (or at 4° C.) for 1 hour.
After the antibody reaction, cells were washed with 1% FCS-PBS (−) and then reacted with a fluorescently labeled anti-IgG secondary antibodies (FITC Goat anti-rabbit IgG (BD Biosciences, 554020), Alexa Fluor 488 anti-rabbit IgG (H+L) (Invitrogen, A21206), Alexa Fluor 647 anti-rabbit IgG (BioLegend, 406414). Alexa Fluor 488 F(ab′)2 anti-mouse IgG (H+L) (Invitrogen, A11017) or Alexa Fluor 488 anti-human IgG (H+L) (Invitrogen, A11013) at a concentration of 1 to 10 μg/mL for reaction with an antibody against CAPRIN-1, followed by 1 hour of reaction on ice (or at 4° C.). After reaction with the fluorescently labeled secondar antibodies, cells were washed with 1% FCS-PBS(−) and then reacted with a PI (propidium iodide) solution (DOJINDO, 341-07881) or Fixable Viability Stain 450 (BD Horizon) prepared at a concentration of 0.1 μg/mL for 15 minutes. Cells were then washed with 1% FCS-PBS(−) and then the scattered light intensity and fluorescence intensity were measured using a flow cytometer according to a standard method.

Compound | expression of the CAPRIN-1 protein on the membrane surface of the cancer cells (final concentration 0.1 mM) | expression of the CAPRIN-1 protein on the membrane surface of the cancer cells (final concentration 10 μM)
c1cc(-c2cnn3cc(-c4ccc(OCCN5CCCCC5)cc4)cnc23)ccn1 [Dorsomorphin] | clearly reduced | 
O=c1cc(N2CCOCC2)oc2c(-c3ccccc3)cccc12 [LY294002] |  | clearly reduced
